The target of this assay is T1, Smc4-L1333I-L1335A, 3xStrepTagII-tagged (S. cerevisiae) (UniProt Q12267).
T1 sequence: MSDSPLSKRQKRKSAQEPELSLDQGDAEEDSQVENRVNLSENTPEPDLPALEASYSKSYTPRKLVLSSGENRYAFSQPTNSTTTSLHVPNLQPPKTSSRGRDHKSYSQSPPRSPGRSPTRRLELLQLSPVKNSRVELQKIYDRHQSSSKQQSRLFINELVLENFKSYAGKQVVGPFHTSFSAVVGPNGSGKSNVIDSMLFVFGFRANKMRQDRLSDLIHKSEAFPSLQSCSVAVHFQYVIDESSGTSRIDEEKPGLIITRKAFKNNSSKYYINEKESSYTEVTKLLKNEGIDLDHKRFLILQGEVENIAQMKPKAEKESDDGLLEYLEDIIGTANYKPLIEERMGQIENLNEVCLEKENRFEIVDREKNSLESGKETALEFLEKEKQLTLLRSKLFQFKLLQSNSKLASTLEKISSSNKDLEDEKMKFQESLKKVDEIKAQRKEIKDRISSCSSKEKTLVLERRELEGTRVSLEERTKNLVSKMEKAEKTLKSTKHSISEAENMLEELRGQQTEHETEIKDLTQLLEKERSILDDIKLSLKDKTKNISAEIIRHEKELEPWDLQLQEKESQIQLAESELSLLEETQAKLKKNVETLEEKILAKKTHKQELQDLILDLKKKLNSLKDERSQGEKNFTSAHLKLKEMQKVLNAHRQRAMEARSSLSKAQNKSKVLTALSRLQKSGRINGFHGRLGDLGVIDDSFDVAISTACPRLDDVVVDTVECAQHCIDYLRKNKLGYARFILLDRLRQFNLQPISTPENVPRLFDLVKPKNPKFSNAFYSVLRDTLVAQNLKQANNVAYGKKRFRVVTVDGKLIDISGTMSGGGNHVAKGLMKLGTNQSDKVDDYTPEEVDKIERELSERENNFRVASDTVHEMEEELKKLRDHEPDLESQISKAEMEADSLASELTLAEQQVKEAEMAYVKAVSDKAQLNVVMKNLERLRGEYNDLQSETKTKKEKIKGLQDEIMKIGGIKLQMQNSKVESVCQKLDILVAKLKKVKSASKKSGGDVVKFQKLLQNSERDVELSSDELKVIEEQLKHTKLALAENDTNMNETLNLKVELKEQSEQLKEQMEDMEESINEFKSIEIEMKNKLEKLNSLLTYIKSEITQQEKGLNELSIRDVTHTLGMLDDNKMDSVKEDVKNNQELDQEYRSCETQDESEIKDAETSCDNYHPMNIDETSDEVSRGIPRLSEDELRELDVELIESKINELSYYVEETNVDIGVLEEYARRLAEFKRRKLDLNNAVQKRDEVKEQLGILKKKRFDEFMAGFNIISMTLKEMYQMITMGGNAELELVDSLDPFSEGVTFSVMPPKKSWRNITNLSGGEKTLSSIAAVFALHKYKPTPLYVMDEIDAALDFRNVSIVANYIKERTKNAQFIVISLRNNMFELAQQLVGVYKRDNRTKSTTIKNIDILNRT
The assay can be described thus: tandem affinity co-purification (Ni-NTA, Strep-Trap) + SEC; five condensin subunits co-overexpressed in yeast; extract in 500 mM NaCl, 10 mM Tris-HCl pH 8.0, 10% glycerol; Ni-NTA (His tags on Brn1 and Ycg1), then Strep-Trap HP (3xStrepTagII on Smc4), then Superose 6 10/300 in 200 mM NaCl, 50 mM Tris-HCl pH 8.0; subunits seen by SDS-PAGE and Coomassie staining.

These results are taken from paper PMC6039025.

These are yes or no findings as the source states them, for the method shown. Some entries that bind do so weakly or less than the wild type. Tags and fused reporters may be left off the sequences shown.

B1: Smc2 (protein, UniProt P38989 1-1170)
chain: MKVEELIIDGFKSYATRTVITDWDPQFNAITGLNGSGKSNILDAICFVLGIASMSTVRASSLQDLIYKRGQAGVTKASVTIVFDNTDKSNSPIGFTNSPQISVTRQVVLGGTSKYLINGHRAPQQSVLQLFQSVQLNINNPNFLIMQGKITKVLNMKPSEILSLIEEAAGTKMFEDRREKAERTMSKKETKLQENRTLLTEEIEPKLEKLRNEKRMFLEFQSTQTDLEKTERIVVSYEYYNIKHKHTSIRETLENGETRMKMLNEFVKKTSEEIDSLNEDVEEIKLQKEKELHKEGTISKLENKENGLLNEISRLKTSLSIKVENLNDTTEKSKALESEIASSSAKLIEKKSAYANTEKDYKMVQEQLSKQRDLYKRKEELVSTLTTGISSTGAADGGYNAQLAKAKTELNEVSLAIKKSSMKMELLKKELLTIEPKLKEATKDNELNVKHVKQCQETCDKLRARLVEYGFDPSRIKDLKQREDKLKSHYYQTCKNSEYLKRRVTNLEFNYTKPYPNFEASFVHGVVGQLFQIDNDNIRYATALQTCAGGRLFNVVVQDSQTATQLLERGRLRKRVTIIPLDKIYTRPISSQVLDLAKKIAPGKVELAINLIRFDESITKAMEFIFGNSLICEDPETAKKITFHPKIRARSITLQGDVYDPEGTLSGGSRNTSESLLVDIQKYNQIQKQIETIQADLNHVTEELQTQYATSQKTKTIQSDLNLSLHKLDLAKRNLDANPSSQIIARNEEILRDIGECENEIKTKQMSLKKCQEEVSTIEKDMKEYDSDKGSKLNELKKELKLLAKELEEQESESERKYDLFQNLELETEQLSSELDSNKTLLHNHLKSIESLKLENSDLEGKIRGVEDDLVTVQTELNEEKKRLMDIDDELNELETLIKKKQDEKKSSELELQKLVHDLNKYKSNTNNMEKIIEDLRQKHEFLEDFDLVRNIVKQNEGIDLDTYRERSKQLNEKFQELRKKVNPNIMNMIENVEKKEAALKTMIKTIEKDKMKIQETISKLNEYKRETLVKTWEKVTLDFGNIFADLLPNSFAKLVPCEGKDVTQGLEVKVKLGNIWKESLIELSGGQRSLIALSLIMALLQFRPAPMYILDEVDAALDLSHTQNIGHLIKTRFKGSQFIVVSLKEGMFANANRVFRTRFQDGTSVVSIM
For B1, the binding result is “binds”.

B2: Brn1-3xHA-12xHIS (protein, UniProt P38170 1-754)
chain: MTTQLRYENNDDDERVEYNLFTNRSTMMANFEEWIKMATDNKINSRNSWNFALIDYFYDLDVLKDGENNINFQKASATLDGCIKIYSSRVDSVTTETGKLLSGLAQRKTNGASNGDDSNGGNGEGLGGDSDEANIEIDPLTGMPISNDPDVNNTRRRVYNRVLETTLVEFETIKMKELDQELIIDPLFKKALVDFDEGGAKSLLLNTLNIDNTARVIFDASIKDTQNVGQGKLQRKEEELIERDSLVDDENEPSQSLISTRNDSTVNDSVISAPSMEDEILSLGMDFIKFDQIAVCEISGSIEQLRNVVEDINQAKDFIENVNNRFDNFLTEEELQAAVPDNAEDDSDGFDMGMQQELCYPDENHDNTSHDEQDDDNVNSTTGSIFEKDLMAYFDENLNRNWRGREHWKVRNFKKANLVNKESDLLEETRTTIGDTTDKNTTDDKSMDTKKKHKQKKVLEIDFFKTDDSFEDKVFASKGRTKIDMPIKNRKNDTHYLLPDDFHFSTDRITRLFIKPGQKMSLFSHRKHTRGDVSSGLFEKSTVSANHSNNDIPTIADEHFWADNYERKEQEEKEKEQSKEVGDVVGGALDNPFEDDMDGVDFNQAFEGTDDNEEASVKLDLQDDEDHKFPIRENKVTYSRVSKKVDVRRLKKNVWRSINNLIQEHDSRKNREQSSNDSETHTEDESTKELKFSDIIQGISKMYSDDTLKDISTSFCFICLLHLANEHGLQITHTENYNDLIVNYEDLATTQAAS
Turning to B2, the binding entry is “binds”.

B3: Ycg1-3xFLAG-9xHIS (protein, UniProt Q06680 1-1035)
chain: MQDPDGIDINTKIFNSVAEVFQKAQGSYAGHRKHIAVLKKIQSKAVEQGYEDAFNFWFDKLVTKILPLKKNEIIGDRIVKLVAAFIASLERELILAKKQNYKLTNDEEGIFSRFVDQFIRHVLRGVESPDKNVRFRVLQLLAVIMDNIGEIDESLFNLLILSLNKRIYDREPTVRIQAVFCLTKFQDEEQTEHLTELSDNEENFEATRTLVASIQNDPSAEVRRAAMLNLINDNNTRPYILERARDVNIVNRRLVYSRILKSMGRKCFDDIEPHIFDQLIEWGLEDRELSVRNACKRLIAHDWLNALDGDLIELLEKLDVSRSSVCVKAIEALFQSRPDILSKIKFPESIWKDFTVEIAFLFRAIYLYCLDNNITEMLEENFPEASKLSEHLNHYILLRYHHNDISNDSQSHFDYNTLEFIIEQLSIAAERYDYSDEVGRRSMLTVVRNMLALTTLSEPLIKIGIRVMKSLSINEKDFVTMAIEIINDIRDDDIEKQEQEEKIKSKKINRRNETSVDEEDENGTHNDEVNEDEEDDNISSFHSAVENLVQGNGNVSESDIINNLPPEKEASSATIVLCLTRSSYMLELVNTPLTENILIASLMDTLITPAVRNTAPNIRELGVKNLGLCCLLDVKLAIDNMYILGMCVSKGNASLKYIALQVIVDIFSVHGNTVVDGEGKVDSISLHKIFYKVLKNNGLPECQVIAAEGLCKLFLADVFTDDDLFETLVLSYFSPINSSNEALVQAFAFCIPVYCFSHPAHQQRMSRTAADILLRLCVLWDDLQSSVIPEVDREAMLKPNIIFQQLLFWTDPRNLVNQTGSTKKDTVQLTFLIDVLKIYAQIEKKEIKKMIITNINAIFLSSEQDYSTLKELLEYSDDIAENDNLDNVSKNALDKLRNNLNSLIEEINERSETQTKDENNTANDQYSSILGNSFNKSSNDTIEHAADITDGNNTELTKTTVNISAVDNTTEQSNSRKRTRSEAEQIDTSKNLENMSIQDTSTVAKNVSFVLPDEKSDAMSIDEEDKDSESFSEVC
In the case of B3, the binding entry is reported as “binds”.

B4: Ycs4 (protein, UniProt Q06156 1-1176)
chain: MSGFSLSEYLTKFQTTDRESYPRLQDPSRELNVIIDQLAVSPEQIDASPDSLEALIDLCHDFPHLTPKLQTQLSYLISSSLSNLSKDIKANLSSNVNFTEIGGLIPQWKRHLEEYGYLIQVLLTFLQDELHKVSSQSTNLNRSAKNSKNDSANVELFKRDCNQMENLLESITKLLEINLSKIFQTTPEKDLFIGLFTRPLFVLLEIEPVTKVSSLKMFIQRILAMCVKNHGQSSSIQSSLMTNLTYFLHLSVFNAELLKLLNDEYNYPQLTEDILKEISTRVFNAKDTTGPKAISNFLIKLSELSPGIMLRQMNLVITLLNNSSITLRCSVVEACGNIVAELAQDPQTMEHYKQQIAVLIELLEERFQDSNPYVRTKAIQGCSKICDLSSKFNKSKAKFTSLAVRSLQDRSSLVRRNSVKLLSKLLLKHPFKAIHGSQLRLSEWEEYLKGSESQLNSTLKKVESQETLNDTIERSLIEEEVEQDEGQCRTELEGSFNKSAELSRIENEVENINATNTSVLMKLKLMIVYYKDAISFIKEIHKSIELISNLLFSKNRNEVLESMDFLVLADAFDIELSEFGIKKMLHLVWMKGTNDEGTSISVHLIECYKQLFLTAPDSCNMQEKAAHIAKNLINLSIGASIADLASLEQLLGMMYEQKLIDQHVINILWAIYNSASKASMQKEQNVNNRDSEKGFSKEQIHGSIIILGMLSLADNEIALKGLESLLNIGLGAVGLKDLTLCRYSCLALERMVPKRSTIITKAINQELEDVAVKKLYAIIINYTKDNEYYPMCEQALSALFTISSKPDILATDLIREKTMMTFGKPEEEDSILSLEQSSRVVSLSQLLFIVGQVAIKTLVYLEKCEAEFKKRKIEAETRNGKVKNQGADVTNTTQDNGGDKELEMIGGTNEDDFTDAIQFVKENELLFGEKSILGKFCPIVEEIVSNSSRFSDPMLQRTATLCLEKLMCLSSKYCEKSLPLLITVMEKSPDPTIRSNAVLGLGDMAVCFNNLVDENTDYLYRRLHDENLMVQRTCLMTVTFLILAGQVKVKGQLGEMAKCLDNPDQGISDMCRLFFTELASKDNAIYNGFIDIFSNLSSDDLLGKESFKKIIKFLLTFIDKERHQKQLNEKLVGRLRKCETQKQWDDIAFVLNNLPYKNEDVTALLEQGFKVVSAKE
Take B4: the binding entry is on record as “binds”.
